Data source: PubChem BioAssay AID743121 (NCATS, 2013)

Assay: 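Knock-downs that sensitise breast cancer cells to camptothecin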 (primary screen)
System: MDA-MB-231 cells, a human breast cancer line
Reagent: single siRNA against human genes, 20 nM siRNA (0.8 pmol per well)
Time to read-out: 120 h (drug added 48 h after transfection, read 72 h later)
Treatment: camptothecin 20 nM (about EC30) for 72 h; vehicle 0.1% DMSO in parallel plates
Read-out: 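CellTiter-Glo ATP signal, scaled to control siRNA as percent viability; sensitisation given as log2 of untreated divided by camptothecin-treated viability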
Scale: log2 vehicle/camptothecin viability: higher = stronger sensitisation to camptothecin
Active means: 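Active genes have an RSA gene-level p-value below 0.001, computed from the ratios of their separate siRNAs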
The deposit covers about 26,000 reagents; this is a random part of them. Of all reagents, 167 (0.63%) were called active. 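Calls are per gene from RSA p-values that are not deposited; an individual active-marked siRNA can sensitise only weakly.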 Unmarked entries are inactive. The numbers tell different reagents against one gene apart. Not all columns of the deposit are shown. Reagent sequences are not shown.

TSHR (GeneID 7253) #1 | log2 vehicle/camptothecin viability = 0.0359
TSHR (GeneID 7253) #2 | log2 vehicle/camptothecin viability = -0.0696
TSHR (GeneID 7253) #3 | log2 vehicle/camptothecin viability = -0.389
TSHR (GeneID 7253) #4 | log2 vehicle/camptothecin viability = 0.914
CTSC (GeneID 1075) #1 | log2 vehicle/camptothecin viability = -0.0641
CTSC (GeneID 1075) #2 | log2 vehicle/camptothecin viability = -0.545
CTSC (GeneID 1075) #3 | log2 vehicle/camptothecin viability = -0.493
CTSC (GeneID 1075) #4 | log2 vehicle/camptothecin viability = -0.516
CLCN3 (GeneID 1182) #1 | log2 vehicle/camptothecin viability = -0.407
CLCN3 (GeneID 1182) #2 | log2 vehicle/camptothecin viability = -0.077
CLCN3 (GeneID 1182) #3 | log2 vehicle/camptothecin viability = -0.126
CLCN3 (GeneID 1182) #4 | log2 vehicle/camptothecin viability = -0.389
CCN6 (GeneID 8838) #1 | log2 vehicle/camptothecin viability = -0.265
CCN6 (GeneID 8838) #2 | log2 vehicle/camptothecin viability = 0.0439
CCN6 (GeneID 8838) #3 | log2 vehicle/camptothecin viability = -0.271

Entries above whose target name begins with T or t (4):
TSHR (GeneID 7253) #1 | log2 vehicle/camptothecin viability = 0.0359
TSHR (GeneID 7253) #2 | log2 vehicle/camptothecin viability = -0.0696
TSHR (GeneID 7253) #3 | log2 vehicle/camptothecin viability = -0.389
TSHR (GeneID 7253) #4 | log2 vehicle/camptothecin viability = 0.914
